# This is one part of the list. The data scatter; read single values as rough.
# The chains behind the UniProt entries cited, without tags or fusion partners. Where a name states a change or a piece, a line headed by the entry shows the natural chain unless it says otherwise.
# UniProt A4D1P6: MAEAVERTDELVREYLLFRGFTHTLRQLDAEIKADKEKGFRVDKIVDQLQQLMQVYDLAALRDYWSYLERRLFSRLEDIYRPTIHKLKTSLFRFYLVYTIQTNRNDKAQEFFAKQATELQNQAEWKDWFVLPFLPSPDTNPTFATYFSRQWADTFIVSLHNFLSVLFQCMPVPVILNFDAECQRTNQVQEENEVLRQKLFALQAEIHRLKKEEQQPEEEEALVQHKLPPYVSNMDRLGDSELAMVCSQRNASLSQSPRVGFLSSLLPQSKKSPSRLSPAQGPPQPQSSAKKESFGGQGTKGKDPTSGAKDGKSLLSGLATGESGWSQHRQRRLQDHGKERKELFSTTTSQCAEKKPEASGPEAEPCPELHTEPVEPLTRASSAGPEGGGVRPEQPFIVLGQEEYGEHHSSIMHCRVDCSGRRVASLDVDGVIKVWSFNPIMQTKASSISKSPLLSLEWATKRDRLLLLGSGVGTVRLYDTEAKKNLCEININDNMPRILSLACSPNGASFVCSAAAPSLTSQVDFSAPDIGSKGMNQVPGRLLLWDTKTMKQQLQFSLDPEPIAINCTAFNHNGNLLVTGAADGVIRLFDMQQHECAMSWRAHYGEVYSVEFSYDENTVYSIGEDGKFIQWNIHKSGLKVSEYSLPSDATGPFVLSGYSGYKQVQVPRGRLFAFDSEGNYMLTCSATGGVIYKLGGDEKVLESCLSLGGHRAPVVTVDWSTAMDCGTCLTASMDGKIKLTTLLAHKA
# Target: T1, WDR91 C366 (UniProt A4D1P6)
# T1 sequence (whole entry): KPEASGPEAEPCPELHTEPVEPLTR
# Assay: log2 mean competition ratio of IA-DTB cysteine labelling (DMSO/compound) (log2 ratio); higher = stronger cysteine engagement by compound
# Details: 50 µM; treatment time: 4 h; cell line lysate: HEK293T
# Method: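 IA-DTB competitive cysteine chemoproteomics in HEK293T RIPA lysate. Lysates were treated with compound 29 or 30 at 50 or 200 µM for 4 h, then IA-DTB (500 µM, 1 h), trypsin-digested, NeutrAvidin-enriched and analysed by diaPASEF. Competition ratio = intensity DMSO / intensity compound (n=4 treated, n=64 DMSO); binding: mean log2 CR ≥ 1 and p ≤ 0.05 plus QC filters. Target is the cysteine site.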
row,SMILES,log2 mean competition ratio
1,O=C(CCl)N[C@@H]1CCCc2ccccc21,-0.264
2,O=C(CCl)N[C@H]1CCCc2ccccc21,0.158

# Same assay, conditions: 200 µM; treatment time: 4 h; cell line lysate: HEK293T
row,SMILES,log2 mean competition ratio
1,O=C(CCl)N[C@@H]1CCCc2ccccc21,-0.0656
2,O=C(CCl)N[C@H]1CCCc2ccccc21,-0.133
